Source: PubChem BioAssay AID1347076 (National Center for Advancing Translational Sciences (NCATS), 2019)
The campaign covered roughly 400,000 compounds. About 13,000 (3.2%) were called active. The shares of active, inactive and inconclusive entries below differ from those in the screen. Calls come from the whole dose curve; as a rule, active = well fitted cell-killing curve with a large enough effect; inconclusive = small, poorly fitted or top-dose-only effect, or effect the other way; inactive = flat fitted curve, though single readings scatter. Potencies of inconclusive entries are doubtful fits and often do not repeat.

test: qHTS assay for MDR1-selective chemotherapeutics: Primary screen using the drug-selected MDR subline cells KB-V1; details: KB-V1 MDR cells viability, CellTiter-Glo, 72 h; activity change, negative = cytotoxicity: at 46.1 µM (top of the series); note: nearly all actives have a fitted effect of over 60% in size
Summary of the method: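 In this primary screen, KB-V1 cells overexpressing P-gp are incubated with library compounds (lowest to highest concentration) for 72 h at 37 degrees C before a luminescent ATP viability read.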
% is set by controls: 0 for no effect and ±100 for the full control effect; potency is the fitted concentration of half-maximal effect.

| Structure (SMILES) | Potency | activity change, negative = cytotoxicity |
| --- | --- | --- |
| O=C(C(=O)N1CCN(C/C=C/c2ccccc2)CC1)c1ccccc1 | inconclusive: 14.6 µM [cytotoxic, partial curve] | – |
| COc1cccc(C=NNC(=O)C2CC2)c1 | inconclusive: 29.1 µM [cytotoxic, single point] | – |
| O=C(Nc1ccccc1Cl)N1CCn2c(nc3ccccc32)C1 | inconclusive: 18.4 µM [cytotoxic, single point] | – |
| COC(CNC(=S)Nc1ccc([N+](=O)[O-])cc1)OC | inconclusive: 18.4 µM [cytotoxic, single point] | – |
| C[C@H](CO)N1C[C@H](C)[C@@H](CN(C)S(=O)(=O)c2ccccc2)Oc2ccc(NC(=O)Cc3ccccc3)cc2C1=O | inactive | – |
| O=C(C[C@@H]1C/C=C\CCCC(=O)OC[C@@H]2CCCN2C1=O)N[C@H](CO)Cc1ccccc1 | inactive | – |
| COc1cc(/C=C/c2ccc3cccc([N+](=O)[O-])c3n2)ccc1OCC#N | inactive | – |
| Nc1nnnn1/N=C/c1ccccc1C(F)(F)F | inconclusive: 29.1 µM [cytotoxic, single point] | – |
| CC(C)c1ccc(NC(=O)COc2ccc(F)cc2C(=O)c2cnn(-c3ccccc3)c2)cc1 | inconclusive: 14.6 µM [cytotoxic, partial curve] | – |
| CCOC(=O)c1cnc2c(cnn2C)c1NCCCN(C)C | inconclusive: 11.6 µM [cytotoxic, partial curve] | – |
| CCCc1c(C)c2cccc(C)c2[nH]c1=O | inconclusive: 32.6 µM [cytotoxic, single point] | – |
| COc1ccc(C[C@H]2CN3C(=NC[C@H]3C)N2CCNC(=O)c2ccc(C)c(Br)c2)cc1 | inactive | – |
| CCc1ccc(NC(=O)CSc2nc3ccccc3nc2Cc2ccccc2OC)cc1 | inconclusive: 29.1 µM [cytotoxic, single point] | – |
| CN1CCc2c(sc(NC(=O)c3cc(Cl)sc3Cl)c2C(N)=O)C1 | inactive | – |
| COc1ccc(-c2ccc(=O)[nH]n2)cc1 | active: 1.84 µM | – |
| Cc1ccc(CCNS(=O)(=O)c2ccc3c(c2)NC(=O)C(C)C(=O)N3)cc1 (stereo not drawn) | – | inconclusive: 40% |
| COCCN(Cc1ccccc1)C(=O)c1ccc2c(c1)NC(=O)CS2 | inactive | – |
| COc1ccc(C2c3c(ccc4ccccc34)Oc3ncn4nc(Cc5ccccc5)nc4c32)cc1OC (stereo not drawn) | inactive | – |
| Cc1ccn(-c2ccc([N+](=O)[O-])cc2)n1 | inactive | – |
| COc1ccc(CN2CCN(S(=O)(=O)c3ccc(C)cc3)CC2)cc1Br | inconclusive: 18.4 µM [cytotoxic, partial curve] | – |
| O=C(/C=C/c1ccc2c(c1)OCO2)NCCS(=O)(=O)N1CCN(c2ccc(F)cc2)CC1 | inconclusive: 8.2 µM [cytotoxic, partial curve, poor fit] | – |
| COC(=O)c1cc(C)ccc1/C=C1/Cc2c(C)cc(C)cc2C1=O | active: 16.4 µM | – |
| N#Cc1cccc(NC(=O)CCNS(=O)(=O)c2ccc3c(c2)CCN3C(=O)C2CC2)c1 | inconclusive: 16.4 µM [rising, single point] | – |
| Cc1ccc(Nc2nc(CSc3nnnn3-c3ccccc3)cc(=O)[nH]2)cc1 | inconclusive: 18.4 µM [cytotoxic, single point] | – |
| COC1=C(C)C(=O)C2=C(C1=O)C1C3CC4=C(C(=O)C(OC)=C(C)C4=O)C(CNC(=O)C(C)=O)N3C(C#N)C(C2)N1C (stereo not drawn) | active: 2.31 µM | – |

| Structure (SMILES) | Potency | activity change, negative = cytotoxicity |
| --- | --- | --- |
| CCN(CC)S(=O)(=O)c1ccc(N)cc1 | inactive | – |
| CC(C)OCCCN1C(=O)c2[nH]nc(-c3ccccc3O)c2C1c1cccc(OCc2ccccc2)c1 (stereo not drawn) | inconclusive: 29.1 µM [cytotoxic, single point] | – |
| CC(C)c1cc(Br)ccc1OCCN1C(=O)NC(C)(C)C1=O | inactive | – |
| CCOCCCNC(=O)C(NC(=O)Cc1cccs1)c1ccccc1 (stereo not drawn) | inconclusive: 14.6 µM [cytotoxic, partial curve] | – |
| CCn1c(Cc2ccccc2)nnc1SCC(=O)Nc1nc(C)cs1 | inconclusive: 23.1 µM [cytotoxic, partial curve, poor fit] | – |
| COc1ccc2nc3n(c(=O)c2c1)-c1ccc(Cl)cc1C(=O)NC3Cc1ccc(O)cc1 (stereo not drawn) | inconclusive: 13 µM [rising, partial curve, poor fit] | – |
| Cc1nc(-c2ccccc2Cl)sc1C(=O)/C=C/N(C)C | inconclusive: 29.1 µM [rising, single point] | – |
| O=S(=O)(/N=C(/c1ccccc1)N1CCCCCC1)c1ccccc1 | inconclusive: 10.3 µM [cytotoxic, single point] | – |
| CCCNC(=O)Cn1c(SCc2ccccc2C)nc2ccncc21 | inconclusive: 18.4 µM [rising, single point] | – |
| O=C1NCCN(Cc2c(F)cccc2Cl)C1CC(=O)N1CCCCO1 (stereo not drawn) | inconclusive: 0.461 µM [cytotoxic, full curve, poor fit] | – |
| CN(C)c1ccc(CNC(=O)Cn2ccc3cc(S(=O)(=O)N4CCCCCC4)ccc32)cc1 | inactive | – |
| O=C(c1ccc(Br)cc1)N(c1ccccn1)C1CCCCC1 | inconclusive: 2.91 µM [cytotoxic, partial curve, poor fit] | – |
| Cn1c(=O)[nH]c(=O)c2c1nc(N)n2Cc1ccccc1 | inactive | – |
| CC(C)c1ccc(CNCc2ccccc2)cc1 | inactive | – |
| COCC(C)n1c(C)cc(C(=O)COC(=O)CN=C2NS(=O)(=O)c3ccccc32)c1C (stereo not drawn) | inconclusive: 4.11 µM [rising, partial curve, poor fit] | – |
| CC1(C)Cc2ccccc2-c2nnc(SCC(=O)N3CCN(c4ccccc4)CC3)n21 | active: 2.31 µM | – |
| CCOC(=O)c1ccc2[nH]c3c(c2c1)CCCC3O (stereo not drawn) | inconclusive: 9.2 µM [cytotoxic, partial curve] | – |
| O=C(COC(=O)c1cc(F)cc(F)c1)NCCCc1ccccc1 | inconclusive: 13 µM [rising, partial curve] | – |
| CCOC(=O)c1c(N2C(=O)Nc3ccccc3N2O)n[nH]c1-c1cccc(Cl)c1 | inconclusive: 29.1 µM [rising, single point] | – |
| COc1cccc(NC(=O)CN(C)C(=O)c2ccc(-c3cccc(C(F)(F)F)c3)o2)c1 | inconclusive: 10.3 µM [cytotoxic, partial curve] | – |
| C/C(=N\Nc1nc2c(s1)CCCC2)c1ccc(Cl)cc1 | inconclusive: 16.4 µM [cytotoxic, single point] | – |
| O=C1CN(C(=O)COC(=O)c2oc3ccccc3c2COc2ccccc2)c2ccccc2N1 | inconclusive: 20.6 µM [cytotoxic, single point] | – |
| CNS(=O)(=O)c1cn(CC(=O)N2CCN(c3ccccc3OC)CC2)cc1S(=O)(=O)NC | inactive | – |
| Cc1ccccc1Nc1c(-c2ccccn2)nc2ccccn12 | inconclusive: 6.51 µM [cytotoxic, partial curve, poor fit] | – |
| Cc1ccc2c(CC(=O)N(Cc3cccc(Cl)c3)C3CCS(=O)(=O)C3)coc2c1 (stereo not drawn) | inactive | – |

| Structure (SMILES) | Potency | activity change, negative = cytotoxicity |
| --- | --- | --- |
| COC(=O)CC1C(=O)NCCN1C(=O)c1ccccc1 (stereo not drawn) | inconclusive: 4.61 µM [rising, full curve] | – |
| COC(C(=O)NC1CCCCCCC1)c1ccccc1 (stereo not drawn) | active: 18.4 µM | – |
| CNC(=O)CSc1nc(N)c2c3c(sc2n1)CCC3 | active: 20.6 µM | – |
| CCn1c(=N)n(CC(=O)c2ccco2)c2ccccc21 | inconclusive: 35.5 µM [cytotoxic, single point] | – |
| Cc1ccc(C)c(OCC(=O)N2CCN(C(=O)c3ccco3)CC2)c1 | inconclusive: 32.6 µM [cytotoxic, partial curve, poor fit] | – |
| O=C(NCc1ccc(Cl)cc1)NCc1ccc(Cl)cc1 | inactive | – |
| COC(=O)CC(c1ccc(OC)c(OC)c1)c1ccc(OC)c(OC)c1 | inactive | – |
| O=C(CN1CCN(c2ccccn2)CC1)NC(=O)NC1CCCCC1 | inconclusive: 18.4 µM [cytotoxic, single point] | – |
| C[C@@H](NC(=O)c1ncn(C)c1C(=O)N[C@H](C)c1ccccc1)c1ccccc1 | inactive | – |
| C/C(=N\NC(N)=S)C1C2C3CC4C5CC(C42)C1C53 (stereo not drawn) | inconclusive: 29.1 µM [cytotoxic, single point] | – |
| CCCCNC(=S)N1CCN(c2ccccc2Cl)CC1 | inconclusive: 29.1 µM [cytotoxic, single point] | – |
| CCN(CC(=O)Nc1ccc(NC(C)=O)cc1)C(=O)c1ccc(=O)[nH]c1 | inconclusive: 0.58 µM [rising, full curve] | – |
| N#Cc1cccc(NC(=O)c2cc(C3CCCCN3S(=O)(=O)c3cccc4cccnc34)on2)c1 (stereo not drawn) | inactive | – |
| COC(=O)c1c(C)[nH]c(C(=O)/C=C/c2cccc(Cl)c2)c1C | inconclusive: 18.4 µM [cytotoxic, single point] | – |
| COc1ccc(C(=O)OCC(=O)N2CCN(C(=O)c3ccco3)CC2)c(OC)c1OC | inactive | – |
| C=CCCCCCCCC(=O)OC | inactive | – |
| CCCCc1ccc(NC(=O)Nc2cnccn2)cc1 | inconclusive: 16.4 µM [cytotoxic, single point] | – |
| O=C1c2ccc([N+](=O)[O-])cc2C(=O)N1Cc1cccnc1 | inconclusive: 29.1 µM [rising, single point] | – |
| CC(/C=C/c1ccccc1)=N\NC(=O)CCc1ccccc1 | inactive | – |
| COc1ccc(OC)c(Nc2c3c(nc4ccccc24)CCC3)c1 | active: 3.66 µM | – |
| CCCN(Cc1cccs1)C(=O)Nc1ccc(F)c(Cl)c1 | inactive | – |
| Oc1ccc(N=Nc2ccc3c(c2)OCCO3)c2ncccc12 | inconclusive: 10.3 µM [cytotoxic, partial curve, poor fit] | – |
| FC(F)(F)c1nnc2c(Sc3ccccc3)nc3ccc(Cl)cc3n12 | inconclusive: 18.4 µM [cytotoxic, single point] | – |

One compound at a time, from the list above.
CC(C)c1ccc(CNCc2ccccc2)cc1 is listed with Potency: inactive
CCn1c(=N)n(CC(=O)c2ccco2)c2ccccc21 is listed with Potency: inconclusive: 35.5 µM [cytotoxic, single point]

Grouped by structure, the compounds so far with a CF3 group (three)

| Structure (SMILES) | Potency | activity change, negative = cytotoxicity |
| --- | --- | --- |
| Nc1nnnn1/N=C/c1ccccc1C(F)(F)F | inconclusive: 29.1 µM [cytotoxic, single point] | – |
| COc1cccc(NC(=O)CN(C)C(=O)c2ccc(-c3cccc(C(F)(F)F)c3)o2)c1 | inconclusive: 10.3 µM [cytotoxic, partial curve] | – |
| FC(F)(F)c1nnc2c(Sc3ccccc3)nc3ccc(Cl)cc3n12 | inconclusive: 18.4 µM [cytotoxic, single point] | – |
